These are yes or no findings as the source states them, for the method shown. Binding seen in cells or lysates may run through a third protein. Some entries that bind do so weakly or less than the wild type. Sequences can lack the tags named with a protein.
Key:
[1] = biological target: T1, HA-Rhbdf2 (rhomboid 5 homolog 2), expressed in 293T cells (UniProt Q80WQ6); experiment: co-IP; HEK293T cells co-transfected with HA-Rhbdf2 and Flag-Cop1 for 1 day; lysate incubated with protein A/G agarose beads and the corresponding antibody at 4°C for 12 hours; Western blot
T1 sequence: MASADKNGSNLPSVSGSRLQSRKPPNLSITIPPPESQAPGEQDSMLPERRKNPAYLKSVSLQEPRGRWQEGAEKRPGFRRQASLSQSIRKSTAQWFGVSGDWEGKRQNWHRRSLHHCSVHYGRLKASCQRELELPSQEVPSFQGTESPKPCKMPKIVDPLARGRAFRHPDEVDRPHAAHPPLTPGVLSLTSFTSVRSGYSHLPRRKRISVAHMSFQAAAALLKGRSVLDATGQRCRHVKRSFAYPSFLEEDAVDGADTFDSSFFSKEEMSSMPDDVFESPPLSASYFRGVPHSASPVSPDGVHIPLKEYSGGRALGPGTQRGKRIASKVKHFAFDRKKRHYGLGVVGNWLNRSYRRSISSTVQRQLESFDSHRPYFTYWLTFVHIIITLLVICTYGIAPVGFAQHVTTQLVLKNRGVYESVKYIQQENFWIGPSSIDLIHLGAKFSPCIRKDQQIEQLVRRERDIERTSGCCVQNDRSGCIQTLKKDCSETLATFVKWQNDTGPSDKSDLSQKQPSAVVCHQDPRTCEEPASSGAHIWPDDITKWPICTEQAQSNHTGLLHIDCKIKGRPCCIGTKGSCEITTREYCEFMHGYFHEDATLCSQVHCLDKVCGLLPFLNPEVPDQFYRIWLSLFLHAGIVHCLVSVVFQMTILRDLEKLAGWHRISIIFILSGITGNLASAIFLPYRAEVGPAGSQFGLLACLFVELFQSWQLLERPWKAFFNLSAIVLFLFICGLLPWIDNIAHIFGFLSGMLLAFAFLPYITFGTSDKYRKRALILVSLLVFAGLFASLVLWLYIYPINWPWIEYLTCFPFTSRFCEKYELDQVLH

Sequences of proteins named here, by UniProt entry; tags and fusion partners are left off.
UniProt Q9R1A8: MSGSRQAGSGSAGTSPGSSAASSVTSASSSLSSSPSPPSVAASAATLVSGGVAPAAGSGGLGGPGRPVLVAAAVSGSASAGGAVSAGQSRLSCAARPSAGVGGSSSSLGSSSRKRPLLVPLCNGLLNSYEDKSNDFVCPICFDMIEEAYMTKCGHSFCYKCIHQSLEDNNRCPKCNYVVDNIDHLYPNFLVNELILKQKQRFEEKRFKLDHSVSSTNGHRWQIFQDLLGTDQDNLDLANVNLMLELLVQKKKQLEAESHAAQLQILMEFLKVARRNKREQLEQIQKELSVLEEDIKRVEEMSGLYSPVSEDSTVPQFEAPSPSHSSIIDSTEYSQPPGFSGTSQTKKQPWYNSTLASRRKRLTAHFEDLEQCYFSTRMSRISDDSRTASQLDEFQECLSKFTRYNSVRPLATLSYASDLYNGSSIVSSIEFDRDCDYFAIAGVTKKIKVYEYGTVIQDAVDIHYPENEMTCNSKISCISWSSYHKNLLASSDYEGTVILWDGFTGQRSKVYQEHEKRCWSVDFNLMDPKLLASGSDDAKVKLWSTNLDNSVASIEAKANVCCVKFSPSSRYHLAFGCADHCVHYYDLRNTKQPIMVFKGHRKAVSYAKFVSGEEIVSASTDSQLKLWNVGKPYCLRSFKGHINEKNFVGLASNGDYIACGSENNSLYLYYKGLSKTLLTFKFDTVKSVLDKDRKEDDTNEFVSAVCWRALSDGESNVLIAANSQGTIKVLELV

[2] = biological target: T2, HA-Rhbdf2 (rhomboid 5 homolog 2), expressed in AML12 cells (UniProt Q80WQ6); experiment: co-IP; AML12 cells co-transfected with HA-Rhbdf2 and Flag-Cop1 for 1 day; lysate incubated with protein A/G agarose beads and the corresponding antibody at 4°C for 12 hours; Western blot
T2 sequence: T1 sequence

binding [1]	binding [2]	Substance
binds	–	Flag-Cop1 (constitutive photomorphogenic 1), expressed in 293T cells (from UniProt Q9R1A8 1-733) (enzyme)
–	binds	Flag-Cop1 (constitutive photomorphogenic 1), expressed in AML12 cells (from UniProt Q9R1A8 1-733) (enzyme)
